This is one part of the list.
Legend:
Assay in all cases: glycan array binding signal (z-score within array); higher = stronger binding
Settings in all cases: glycan notation: IUPAC condensed, linker removed
Gal(b1-3)GalNAc = biological target: Gal(b1-3)GalNAc
Procedure, shortened: (§1)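 Glycan array data were curated from 3228 arrays in the Consortium for Functional Glycomics database and kept only where the protein sequence was available. Glycan names were converted to IUPAC-condensed notation, and columns mapping to the same glycan were averaged. The binding signal is a within-array Z-score, averaged across arrays of the same protein sequence at different concentrations or buffers and across linkers. Negative Z-scores can be read as non-binding.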

[1] = biological target: Gal(b1-3)GalNAc(b1-3)Gal(a1-4)Gal(b1-4)Glc
Procedure, shortened: as §1

[2] = biological target: Gal(b1-3)GalNAc(b1-3)Gal(b1-4)Glc
Procedure, shortened: as §1

[3] = biological target: Gal(b1-3)GalNAc(b1-3)Gal(b1-4)GlcNAc
Procedure, shortened: as §1

[4] = biological target: Gal(b1-3)GalNAc(b1-4)Gal(b1-4)Glc
Procedure, shortened: as §1

[5] = biological target: Gal(b1-3)GalNAc(b1-4)[Neu5Ac(a2-3)]Gal(b1-4)Glc
Procedure, shortened: as §1

[6] = biological target: Gal(b1-3)GlcNAc(b1-3)Gal(b1-3)GlcNAc
Procedure, shortened: as §1

[7] = biological target: Gal(b1-3)[Fuc(a1-4)]GlcNAc
Procedure, shortened: as §1

[8] = biological target: Gal(b1-3)[Fuc(a1-4)]GlcNAc(b1-3)Gal(b1-3)[Fuc(a1-4)]GlcNAc
Procedure, shortened: as §1

[9] = biological target: Gal(b1-3)[Fuc(a1-4)]GlcNAc(b1-3)Gal(b1-4)GlcNAc
Procedure, shortened: as §1

[10] = biological target: Gal(b1-3)[Fuc(a1-4)]GlcNAc(b1-3)Gal(b1-4)[Fuc(a1-3)]GlcNAc
Procedure, shortened: as §1

[11] = biological target: Gal(b1-3)[GlcNAc(b1-6)]GalNAc
Procedure, shortened: as §1

[12] = biological target: Gal(b1-3)[GlcNAc(b1-6)]GlcNAc
Procedure, shortened: as §1

[13] = biological target: Gal(b1-3)[Neu5Ac(a2-6)]GalNAc
Procedure, shortened: as §1

[14] = biological target: Gal(b1-3)[Neu5Ac(a2-6)]GlcNAc
Procedure, shortened: as §1

[15] = biological target: Gal(b1-3)[Neu5Ac(a2-6)]GlcNAc(a1-4)Gal(b1-4)Glc
Procedure, shortened: as §1

[16] = biological target: Gal(b1-3)[Neu5Ac(b2-6)]GlcNAc
Procedure, shortened: as §1

[17] = biological target: Gal(b1-4)GalNAc(a1-3)[Fuc(a1-2)]Gal(b1-4)GlcNAc
Procedure, shortened: as §1

[18] = biological target: Gal(b1-4)GalNAc(b1-3)[Fuc(a1-2)]Gal(b1-4)GlcNAc
Procedure, shortened: as §1

Gal(b1-4)Glc = biological target: Gal(b1-4)Glc
Procedure, shortened: as §1

Gal(b1-4)Glc6S = biological target: Gal(b1-4)Glc6S
Procedure, shortened: as §1

Gal(b1-4)GlcNAc = biological target: Gal(b1-4)GlcNAc
Procedure, shortened: as §1

[19] = biological target: Gal(b1-4)GlcNAc(b1-2)Man(a1-3)[Gal(b1-4)GlcNAc(b1-2)Man(a1-6)]Man(b1-4)GlcNAc(b1-4)GlcNAc
Procedure, shortened: as §1

[20] = biological target: Gal(b1-4)GlcNAc(b1-3)Gal(b1-3)GlcNAc
Procedure, shortened: as §1

[21] = biological target: Gal(b1-4)GlcNAc(b1-3)Gal(b1-4)Glc
Procedure, shortened: as §1

[22] = biological target: Gal(b1-4)GlcNAc(b1-3)Gal(b1-4)GlcNAc
Procedure, shortened: as §1

[23] = biological target: Gal(b1-4)GlcNAc(b1-3)Gal(b1-4)GlcNAc(b1-3)Gal(b1-4)GlcNAc
Procedure, shortened: as §1

[24] = biological target: Gal(b1-4)GlcNAc(b1-3)Gal(b1-4)[Fuc(a1-3)]GlcNAc(b1-3)Gal(b1-4)[Fuc(a1-3)]GlcNAc
Procedure, shortened: as §1

[25] = biological target: Gal(b1-4)GlcNAc(b1-3)GalNAc
Procedure, shortened: as §1

[26] = biological target: Gal(b1-4)GlcNAc(b1-3)[Gal(b1-4)GlcNAc(b1-6)]GalNAc
Procedure, shortened: as §1

[27] = biological target: Gal(b1-4)GlcNAc(b1-6)GalNAc
Procedure, shortened: as §1

[28] = biological target: Gal(b1-4)GlcNAc(b1-6)[Gal(b1-3)]GalNAc
Procedure, shortened: as §1

[29] = biological target: Gal(b1-4)GlcNAc(b1-6)[Gal(b1-3)]GlcNAc
Procedure, shortened: as §1

Gal3S(b1-3)GalNAc = biological target: Gal3S(b1-3)GalNAc
Procedure, shortened: as §1

Gal3S(b1-3)GlcNAc = biological target: Gal3S(b1-3)GlcNAc
Procedure, shortened: as §1

[30] = biological target: Gal3S(b1-3)[Fuc(a1-4)]GlcNAc
Procedure, shortened: as §1

Gal3S(b1-4)Glc = biological target: Gal3S(b1-4)Glc
Procedure, shortened: as §1

Gal3S(b1-4)Glc6S = biological target: Gal3S(b1-4)Glc6S
Procedure, shortened: as §1

Gal3S(b1-4)GlcNAc = biological target: Gal3S(b1-4)GlcNAc
Procedure, shortened: as §1

Gal3S(b1-4)GlcNAc6S = biological target: Gal3S(b1-4)GlcNAc6S
Procedure, shortened: as §1

Gal3S6S(b1-4)GlcNAc = biological target: Gal3S6S(b1-4)GlcNAc
Procedure, shortened: as §1

Gal3S6S(b1-4)GlcNAc6S = biological target: Gal3S6S(b1-4)GlcNAc6S
Procedure, shortened: as §1

Gal4S(b1-4)GlcNAc = biological target: Gal4S(b1-4)GlcNAc
Procedure, shortened: as §1

Gal4S6S(b1-4)GlcNAc = biological target: Gal4S6S(b1-4)GlcNAc
Procedure, shortened: as §1

Gal6S(b1-4)Glc = biological target: Gal6S(b1-4)Glc
Procedure, shortened: as §1

Gal6S(b1-4)Glc6S = biological target: Gal6S(b1-4)Glc6S
Procedure, shortened: as §1

Gal6S(b1-4)GlcNAc = biological target: Gal6S(b1-4)GlcNAc
Procedure, shortened: as §1

GalNAc(a1-3)Gal = biological target: GalNAc(a1-3)Gal
Procedure, shortened: as §1

GalNAc(a1-3)GalNAc = biological target: GalNAc(a1-3)GalNAc
Procedure, shortened: as §1

[31] = biological target: GalNAc(b1-3)Gal(a1-4)Gal(b1-4)GlcNAc
Procedure, shortened: as §1

GalNAc(b1-4)GlcNAc = biological target: GalNAc(b1-4)GlcNAc
Procedure, shortened: as §1

Glc(a1-4)Glc = biological target: Glc(a1-4)Glc
Procedure, shortened: as §1

Glc(a1-6)Glc(a1-6)Glc = biological target: Glc(a1-6)Glc(a1-6)Glc
Procedure, shortened: as §1

Glc(b1-4)Glc = biological target: Glc(b1-4)Glc
Procedure, shortened: as §1

Glc(b1-6)Glc = biological target: Glc(b1-6)Glc
Procedure, shortened: as §1

GlcA(b1-3)Gal = biological target: GlcA(b1-3)Gal
Procedure, shortened: as §1

GlcA(b1-6)Gal = biological target: GlcA(b1-6)Gal
Procedure, shortened: as §1

[32] = biological target: GlcNAc(a1-3)Gal(b1-4)GlcNAc
Procedure, shortened: as §1

[33] = biological target: GlcNAc(a1-6)Gal(b1-4)GlcNAc
Procedure, shortened: as §1

[34] = biological target: GlcNAc(b1-2)Gal(b1-3)GlcNAc
Procedure, shortened: as §1

B1: KCR (Mus musculus), P70194 (protein)
chain: MKEAELNRDMARYCTDNQCVSLQPQGLGPKSAALMAPRTLRHVQVILALMVVTVIFSLLALFVVASQPWRPEWNKEPPSLLLRGSNNSGHDNHSQFVRETEMQVAIQRLRDYEENSSSCHKEVQILKYQMDNVSSLVQLLGSHLEDVNADILQTKDVLKESGALALETQALRSSLEVASADIHSLRGDLEKANAMTSQTRGLLKSSTENTSAELHVLGRGLEEAQSEIQALRGSLQSANDLSSQTQGFLQHSMDNISAQIQTVRDGMERAGEKMNSLKKELETLTAQTQKANGHLEQTDAQIQGLKAELKSTSSLNSRIEVVNGQMKDASRELQTLRRDLSDVSALKSNVQMLQSNLQRAKTEMQTLKADLQATKALTAKIQGEQNRLGALQEAVAAQKQEQKTQNQVLQLIAQNWKYFNGNFYYFSRDKKPWREAEKFCTSQGAHLASVTSQEEQAFLVQTTSSGDHWIGLTDQGTEGIWRWVDGTPFNNAQSKGFWGKNQPDNWRHRNGEREDCVHVRQQWNDMACGSSYPWVCKKSTGWSAARVG
glycan array binding signal (z-score) (Gal(b1-3)GalNAc): 0.154 | glycan array binding signal (z-score) [1]: 0.244 | glycan array binding signal (z-score) [2]: -0.052 | glycan array binding signal (z-score) [3]: -0.387 | glycan array binding signal (z-score) [4]: 0.07 | glycan array binding signal (z-score) [5]: 0.387 | glycan array binding signal (z-score) [6]: -0.594 | glycan array binding signal (z-score) [7]: 1.28 | glycan array binding signal (z-score) [8]: 0.348 | glycan array binding signal (z-score) [9]: 0.122 | glycan array binding signal (z-score) [10]: 0.974 | glycan array binding signal (z-score) [11]: -0.209 | glycan array binding signal (z-score) [12]: -0.325 | glycan array binding signal (z-score) [13]: 0 | glycan array binding signal (z-score) [14]: 0.083 | glycan array binding signal (z-score) [15]: 0.04 | glycan array binding signal (z-score) [16]: 0.293 | glycan array binding signal (z-score) [17]: 0.064 | glycan array binding signal (z-score) [18]: 0.906 | glycan array binding signal (z-score) (Gal(b1-4)Glc): -0.247 | glycan array binding signal (z-score) (Gal(b1-4)Glc6S): 1.06 | glycan array binding signal (z-score) (Gal(b1-4)GlcNAc): -0.353 | glycan array binding signal (z-score) [19]: -0.456 | glycan array binding signal (z-score) [20]: -0.749 | glycan array binding signal (z-score) [21]: 0 | glycan array binding signal (z-score) [22]: 0.196 | glycan array binding signal (z-score) [23]: -0.732 | glycan array binding signal (z-score) [24]: -0.057 | glycan array binding signal (z-score) [25]: -0.633 | glycan array binding signal (z-score) [26]: -0.227 | glycan array binding signal (z-score) [27]: 0.734 | glycan array binding signal (z-score) [28]: 0.017 | glycan array binding signal (z-score) [29]: -0.129 | glycan array binding signal (z-score) (Gal3S(b1-3)GalNAc): -0.429 | glycan array binding signal (z-score) (Gal3S(b1-3)GlcNAc): 0.069 | glycan array binding signal (z-score) [30]: 0.43 | glycan array binding signal (z-score) (Gal3S(b1-4)Glc): 0.71 | glycan array binding signal (z-score) (Gal3S(b1-4)Glc6S): 1.12 | glycan array binding signal (z-score) (Gal3S(b1-4)GlcNAc): -0.178 | glycan array binding signal (z-score) (Gal3S(b1-4)GlcNAc6S): 0.95 | glycan array binding signal (z-score) (Gal3S6S(b1-4)GlcNAc): 0.47 | glycan array binding signal (z-score) (Gal3S6S(b1-4)GlcNAc6S): 2.21 | glycan array binding signal (z-score) (Gal4S(b1-4)GlcNAc): 0.174 | glycan array binding signal (z-score) (Gal4S6S(b1-4)GlcNAc): 0.473 | glycan array binding signal (z-score) (Gal6S(b1-4)Glc): 1.07 | glycan array binding signal (z-score) (Gal6S(b1-4)Glc6S): 2.48 | glycan array binding signal (z-score) (Gal6S(b1-4)GlcNAc): 0.769 | glycan array binding signal (z-score) (GalNAc(a1-3)Gal): 0.172 | glycan array binding signal (z-score) (GalNAc(a1-3)GalNAc): 0.543 | glycan array binding signal (z-score) [31]: 0.243 | glycan array binding signal (z-score) (GalNAc(b1-4)GlcNAc): 0.041 | glycan array binding signal (z-score) (Glc(a1-4)Glc): -0.669 | glycan array binding signal (z-score) (Glc(a1-6)Glc(a1-6)Glc): -0.706 | glycan array binding signal (z-score) (Glc(b1-4)Glc): -0.367 | glycan array binding signal (z-score) (Glc(b1-6)Glc): -0.566 | glycan array binding signal (z-score) (GlcA(b1-3)Gal): -0.071 | glycan array binding signal (z-score) (GlcA(b1-6)Gal): 1.36 | glycan array binding signal (z-score) [32]: -0.828 | glycan array binding signal (z-score) [33]: 2.47 | glycan array binding signal (z-score) [34]: -0.911

Reference: the supplement of paper PMC8728848
